# In paper PMC12169679 (Journal of Medicinal Chemistry, 2025):
# Details: PAMPA
structure (smiles),measurement,value
"CC(C)NCC(O)COc1ccc(CC(N)=O)cc1 (stereo not shown) [Atenolol, reference compound]",prediction of CNS penetration,CNS−
